# Experimental data as given in publication PMC10779311, “Antileishmanial Activity, Toxicity and Mechanism of Action of Complexes of Sodium Usnate with Lanthanide Ions: Eu(III), Sm(III), Gd(III), Nd(III), La(III) and Tb(III)” (International Journal of Molecular Sciences, 2023).
# System: NIH/3T3 fibroblasts
# Test: Cytotoxicity in mammalian cells (sulforhodamine B)
# Assay type: cell-based
# Settings: IC50 in NIH/3T3 fibroblasts/IC50 on intracellular amastigotes
# Method: The cytotoxic effect of compounds 1–7 was evaluated on NIH/3T3 fibroblasts obtained from the Rio de Janeiro Cell Bank (Duque de Caxias, Brazil). Fibroblasts were seeded at […] in 96-well plates. After 24 h of fixation, cells were incubated for 48 h with 1–7 at 2.5–250 µg·mL^−1, in three replicates. Cell growth was evaluated using the sulforhodamine B colorimetric method, and the optical with absorbances read on the PT-READER microplate instrument (Spectramax 190, Molecular Devices, Sunnyvale, CA, USA) at 540 nm. […] The growth inhibition percentage-GI (%) of each test sample was calculated in Microsoft Office Excel 2007 software. IC50 was determined graphically in the Microcal Origin Version 6.00 program. The selectivity index (SI) was calculated as the ratio between the cytotoxicity on cells (IC50) and the activity on the parasite forms (IC50).
row,SMILES,SI (Ama.)
1,CC(=O)C1=C([O-])C=C2Oc3c(C(C)=O)c(O)c(C)c(O)c3C2(C)C1=O.CC(=O)C1=C([O-])C=C2Oc3c(C(C)=O)c(O)c(C)c(O)c3C2(C)C1=O.CC(=O)C1=C([O-])C=C2Oc3c(C(C)=O)c(O)c(C)c(O)c3C2(C)C1=O.O.O.O.[Nd+3] (stereo not drawn) [NdL3·3H2O 5],6.97
2,CC(=O)C1=C([O-])C=C2Oc3c(C(C)=O)c(O)c(C)c(O)c3C2(C)C1=O.CC(=O)C1=C([O-])C=C2Oc3c(C(C)=O)c(O)c(C)c(O)c3C2(C)C1=O.CC(=O)C1=C([O-])C=C2Oc3c(C(C)=O)c(O)c(C)c(O)c3C2(C)C1=O.O.O.O.[Gd+3] (stereo not drawn) [GdL3·3H2O 3],4.81
3,CC(=O)C1=C([O-])C=C2Oc3c(C(C)=O)c(O)c(C)c(O)c3C2(C)C1=O.CC(=O)C1=C([O-])C=C2Oc3c(C(C)=O)c(O)c(C)c(O)c3C2(C)C1=O.CC(=O)C1=C([O-])C=C2Oc3c(C(C)=O)c(O)c(C)c(O)c3C2(C)C1=O.O.O.O.O.[Sm+3] (stereo not drawn) [SmL3·4H2O 2],3.82
4,CC(=O)C1=C([O-])C=C2Oc3c(C(C)=O)c(O)c(C)c(O)c3C2(C)C1=O.CC(=O)C1=C([O-])C=C2Oc3c(C(C)=O)c(O)c(C)c(O)c3C2(C)C1=O.CC(=O)C1=C([O-])C=C2Oc3c(C(C)=O)c(O)c(C)c(O)c3C2(C)C1=O.O.O.O.[Eu+3] (stereo not drawn) [EuL3·3H2O 4],6.73
5,CC(=O)C1=C([O-])C=C2Oc3c(C(C)=O)c(O)c(C)c(O)c3C2(C)C1=O.CC(=O)C1=C([O-])C=C2Oc3c(C(C)=O)c(O)c(C)c(O)c3C2(C)C1=O.CC(=O)C1=C([O-])C=C2Oc3c(C(C)=O)c(O)c(C)c(O)c3C2(C)C1=O.O.O.O.[La+3] (stereo not drawn) [LaL3·3H2O 7],2.38
6,CC(=O)C1=C([O-])C=C2Oc3c(C(C)=O)c(O)c(C)c(O)c3C2(C)C1=O.CC(=O)C1=C([O-])C=C2Oc3c(C(C)=O)c(O)c(C)c(O)c3C2(C)C1=O.CC(=O)C1=C([O-])C=C2Oc3c(C(C)=O)c(O)c(C)c(O)c3C2(C)C1=O.O.O.[Tb+3] (stereo not drawn) [TbL3·2H2O 6],2.32
